± gives the standard deviation of the averaged measurements. This is one part of the list.
Compound: Nc1nc2c(ncn2[C@@H]2O[C@H](COP(=O)(O)OP(=O)(O)OP(=O)(O)O)[C@@H](O)[C@H]2O)c(=O)[nH]1 [guanosine triphosphate]
Assay: NP40-soluble protein abundance relative to vehicle (solubility fold change) (ratio); higher = more soluble protein in presence of GTP
In short: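 Each value is a fold change relative to the detergent-processed vehicle, calculated per replicate from vsn-normalised intensities. Jurkat crude lysate received eight concentrations (0.1 to 10 mM) for 10 min at room temperature and 3 min at 37 °C, then was solubilised in 0.8% NP40 with benzonase (60 min, 4 °C). The ultracentrifuged supernatant was TMT-labelled and run by LC-MS/MS in three independent experiments.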

Chains of the proteins cited; added tags and fusions are not shown. Lines headed by an entry give the natural chain unless they say otherwise; changes in a name come on top.
UniProt P05166: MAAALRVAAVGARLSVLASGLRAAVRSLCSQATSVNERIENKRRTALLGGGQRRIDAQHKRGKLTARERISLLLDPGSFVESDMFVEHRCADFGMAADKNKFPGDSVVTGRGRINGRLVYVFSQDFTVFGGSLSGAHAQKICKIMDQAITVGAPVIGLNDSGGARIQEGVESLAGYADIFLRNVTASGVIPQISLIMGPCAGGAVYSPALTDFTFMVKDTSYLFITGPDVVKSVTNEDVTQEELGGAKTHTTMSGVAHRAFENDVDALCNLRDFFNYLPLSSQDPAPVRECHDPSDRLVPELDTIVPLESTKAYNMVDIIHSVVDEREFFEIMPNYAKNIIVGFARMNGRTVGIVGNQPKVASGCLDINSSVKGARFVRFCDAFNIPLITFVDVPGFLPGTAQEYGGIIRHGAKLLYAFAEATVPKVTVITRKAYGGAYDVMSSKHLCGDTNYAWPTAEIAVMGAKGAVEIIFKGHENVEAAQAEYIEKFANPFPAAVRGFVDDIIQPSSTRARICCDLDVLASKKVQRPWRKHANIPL
UniProt Q99719: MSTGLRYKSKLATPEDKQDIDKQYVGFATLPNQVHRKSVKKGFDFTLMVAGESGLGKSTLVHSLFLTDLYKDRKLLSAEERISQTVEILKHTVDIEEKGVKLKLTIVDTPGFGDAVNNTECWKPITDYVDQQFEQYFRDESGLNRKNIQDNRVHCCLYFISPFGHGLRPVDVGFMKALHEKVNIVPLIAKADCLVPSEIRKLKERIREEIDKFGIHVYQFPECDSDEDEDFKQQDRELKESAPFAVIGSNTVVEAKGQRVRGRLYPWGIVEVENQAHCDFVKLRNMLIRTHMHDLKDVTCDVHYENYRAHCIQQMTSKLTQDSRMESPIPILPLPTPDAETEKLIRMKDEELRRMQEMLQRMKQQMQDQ
UniProt Q9NUQ7: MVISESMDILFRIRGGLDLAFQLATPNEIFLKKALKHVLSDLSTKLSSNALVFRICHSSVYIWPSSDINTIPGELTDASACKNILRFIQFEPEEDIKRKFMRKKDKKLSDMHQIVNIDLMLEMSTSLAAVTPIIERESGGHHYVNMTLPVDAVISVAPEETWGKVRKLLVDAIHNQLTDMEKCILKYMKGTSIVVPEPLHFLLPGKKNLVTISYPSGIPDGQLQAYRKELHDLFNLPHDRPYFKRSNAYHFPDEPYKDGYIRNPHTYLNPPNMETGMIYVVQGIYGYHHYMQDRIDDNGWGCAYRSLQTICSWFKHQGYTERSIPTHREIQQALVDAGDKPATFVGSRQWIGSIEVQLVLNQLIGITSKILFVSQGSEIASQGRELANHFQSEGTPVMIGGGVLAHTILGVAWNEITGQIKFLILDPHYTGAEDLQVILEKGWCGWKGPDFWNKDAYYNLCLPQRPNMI
UniProt P15882: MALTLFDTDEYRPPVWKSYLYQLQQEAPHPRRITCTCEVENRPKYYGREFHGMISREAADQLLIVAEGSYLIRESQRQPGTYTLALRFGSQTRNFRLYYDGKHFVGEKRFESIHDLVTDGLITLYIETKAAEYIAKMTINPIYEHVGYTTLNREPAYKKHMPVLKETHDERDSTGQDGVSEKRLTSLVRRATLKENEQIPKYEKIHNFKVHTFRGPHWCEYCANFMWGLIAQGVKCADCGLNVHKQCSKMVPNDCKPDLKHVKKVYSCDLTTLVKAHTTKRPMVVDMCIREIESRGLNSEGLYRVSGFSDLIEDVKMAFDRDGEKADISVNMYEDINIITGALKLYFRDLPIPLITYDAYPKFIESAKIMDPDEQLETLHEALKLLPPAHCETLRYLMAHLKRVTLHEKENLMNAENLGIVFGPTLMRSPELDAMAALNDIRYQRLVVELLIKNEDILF
UniProt Q8NCD3, whole entry: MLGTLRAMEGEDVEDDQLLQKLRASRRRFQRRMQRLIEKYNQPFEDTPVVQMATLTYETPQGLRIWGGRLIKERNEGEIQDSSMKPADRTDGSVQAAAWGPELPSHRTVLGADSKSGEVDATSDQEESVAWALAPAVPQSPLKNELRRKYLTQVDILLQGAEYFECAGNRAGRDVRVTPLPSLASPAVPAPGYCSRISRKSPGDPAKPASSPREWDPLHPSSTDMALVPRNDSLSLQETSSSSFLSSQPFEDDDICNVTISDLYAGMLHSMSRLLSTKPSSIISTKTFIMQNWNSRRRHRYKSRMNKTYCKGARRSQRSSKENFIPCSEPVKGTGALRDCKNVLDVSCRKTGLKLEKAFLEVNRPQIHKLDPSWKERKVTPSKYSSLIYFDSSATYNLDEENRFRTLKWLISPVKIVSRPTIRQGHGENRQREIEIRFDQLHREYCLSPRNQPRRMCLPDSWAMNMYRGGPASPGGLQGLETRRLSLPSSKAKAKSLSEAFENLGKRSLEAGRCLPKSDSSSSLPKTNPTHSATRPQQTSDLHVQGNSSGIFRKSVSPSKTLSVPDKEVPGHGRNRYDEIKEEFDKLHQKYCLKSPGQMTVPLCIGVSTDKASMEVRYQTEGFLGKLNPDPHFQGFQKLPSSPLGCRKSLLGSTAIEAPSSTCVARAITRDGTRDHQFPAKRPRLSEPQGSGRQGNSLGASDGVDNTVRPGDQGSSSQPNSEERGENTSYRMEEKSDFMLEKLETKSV
UniProt Q8IVH2: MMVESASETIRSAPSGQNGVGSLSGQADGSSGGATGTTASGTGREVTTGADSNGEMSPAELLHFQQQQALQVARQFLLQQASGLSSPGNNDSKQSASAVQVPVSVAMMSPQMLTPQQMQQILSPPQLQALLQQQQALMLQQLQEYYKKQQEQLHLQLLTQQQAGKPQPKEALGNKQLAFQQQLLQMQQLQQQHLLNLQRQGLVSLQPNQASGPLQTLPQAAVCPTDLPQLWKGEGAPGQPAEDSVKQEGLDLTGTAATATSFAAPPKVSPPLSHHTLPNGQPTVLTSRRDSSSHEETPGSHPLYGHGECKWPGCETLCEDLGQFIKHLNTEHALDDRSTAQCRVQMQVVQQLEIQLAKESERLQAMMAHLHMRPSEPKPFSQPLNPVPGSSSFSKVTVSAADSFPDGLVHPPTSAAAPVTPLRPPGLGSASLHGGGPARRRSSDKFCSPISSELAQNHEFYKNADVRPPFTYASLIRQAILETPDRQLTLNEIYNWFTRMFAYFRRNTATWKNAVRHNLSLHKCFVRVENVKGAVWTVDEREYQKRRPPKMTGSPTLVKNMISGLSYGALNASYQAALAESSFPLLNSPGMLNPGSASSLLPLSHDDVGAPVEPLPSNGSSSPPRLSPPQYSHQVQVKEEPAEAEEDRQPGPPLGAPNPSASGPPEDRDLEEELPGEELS
UniProt Q15369, whole entry: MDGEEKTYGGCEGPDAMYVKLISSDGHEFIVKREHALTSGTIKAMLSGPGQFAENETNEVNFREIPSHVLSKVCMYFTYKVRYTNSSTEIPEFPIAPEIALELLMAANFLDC
UniProt Q12905: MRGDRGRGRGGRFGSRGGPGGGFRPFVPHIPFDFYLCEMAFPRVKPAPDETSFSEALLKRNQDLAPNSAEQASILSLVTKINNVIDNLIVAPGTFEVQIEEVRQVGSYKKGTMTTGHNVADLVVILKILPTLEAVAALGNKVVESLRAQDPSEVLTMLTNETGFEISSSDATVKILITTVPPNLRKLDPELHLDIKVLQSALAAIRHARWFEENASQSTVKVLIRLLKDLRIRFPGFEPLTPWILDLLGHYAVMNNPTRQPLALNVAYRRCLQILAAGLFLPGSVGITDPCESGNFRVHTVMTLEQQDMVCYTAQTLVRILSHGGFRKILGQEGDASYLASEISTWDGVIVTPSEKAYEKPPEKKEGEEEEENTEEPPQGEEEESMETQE
UniProt Q15811: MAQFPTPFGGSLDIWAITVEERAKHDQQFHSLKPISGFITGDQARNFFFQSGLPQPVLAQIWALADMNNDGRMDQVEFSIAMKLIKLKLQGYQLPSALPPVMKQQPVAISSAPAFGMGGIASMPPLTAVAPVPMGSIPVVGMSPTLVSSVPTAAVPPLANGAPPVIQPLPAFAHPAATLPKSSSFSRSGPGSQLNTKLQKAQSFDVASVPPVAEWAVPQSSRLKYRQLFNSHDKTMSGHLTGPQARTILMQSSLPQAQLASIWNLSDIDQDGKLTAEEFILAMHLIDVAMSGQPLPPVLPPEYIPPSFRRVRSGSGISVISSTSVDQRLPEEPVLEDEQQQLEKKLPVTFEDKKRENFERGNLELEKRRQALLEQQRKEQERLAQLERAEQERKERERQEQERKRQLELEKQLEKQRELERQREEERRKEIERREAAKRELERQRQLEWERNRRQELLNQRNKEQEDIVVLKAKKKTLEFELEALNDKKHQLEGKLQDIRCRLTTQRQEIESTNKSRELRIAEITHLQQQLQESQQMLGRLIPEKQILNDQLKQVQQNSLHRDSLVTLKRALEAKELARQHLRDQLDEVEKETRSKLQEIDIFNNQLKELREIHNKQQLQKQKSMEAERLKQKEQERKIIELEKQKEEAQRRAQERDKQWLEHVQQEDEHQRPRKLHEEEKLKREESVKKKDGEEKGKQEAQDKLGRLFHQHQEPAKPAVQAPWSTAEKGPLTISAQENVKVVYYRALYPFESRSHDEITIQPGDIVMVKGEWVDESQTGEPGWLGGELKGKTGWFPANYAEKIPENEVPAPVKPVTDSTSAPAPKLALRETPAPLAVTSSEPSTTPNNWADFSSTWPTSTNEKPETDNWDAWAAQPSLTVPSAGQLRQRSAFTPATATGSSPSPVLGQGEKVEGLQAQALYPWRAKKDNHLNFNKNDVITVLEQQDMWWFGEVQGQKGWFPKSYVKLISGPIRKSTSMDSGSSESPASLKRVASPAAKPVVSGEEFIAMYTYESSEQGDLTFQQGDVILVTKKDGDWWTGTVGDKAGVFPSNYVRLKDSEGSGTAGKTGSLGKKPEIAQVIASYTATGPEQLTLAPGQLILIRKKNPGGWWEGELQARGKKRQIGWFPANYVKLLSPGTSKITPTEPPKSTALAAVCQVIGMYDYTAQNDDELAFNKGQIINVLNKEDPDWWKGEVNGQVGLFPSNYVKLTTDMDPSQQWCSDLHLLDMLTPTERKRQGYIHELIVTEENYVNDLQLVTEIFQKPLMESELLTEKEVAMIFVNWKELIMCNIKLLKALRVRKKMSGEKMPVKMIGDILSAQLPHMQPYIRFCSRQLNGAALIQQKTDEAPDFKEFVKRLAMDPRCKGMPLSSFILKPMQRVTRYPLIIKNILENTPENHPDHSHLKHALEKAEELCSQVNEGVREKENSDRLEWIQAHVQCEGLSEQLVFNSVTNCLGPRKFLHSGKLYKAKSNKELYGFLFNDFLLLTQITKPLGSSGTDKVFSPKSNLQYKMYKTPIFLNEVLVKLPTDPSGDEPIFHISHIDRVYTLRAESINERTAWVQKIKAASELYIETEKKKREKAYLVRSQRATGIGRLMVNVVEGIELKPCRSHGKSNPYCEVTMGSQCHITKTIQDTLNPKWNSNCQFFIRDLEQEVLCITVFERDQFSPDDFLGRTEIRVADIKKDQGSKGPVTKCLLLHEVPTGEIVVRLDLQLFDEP
UniProt Q9BYT3: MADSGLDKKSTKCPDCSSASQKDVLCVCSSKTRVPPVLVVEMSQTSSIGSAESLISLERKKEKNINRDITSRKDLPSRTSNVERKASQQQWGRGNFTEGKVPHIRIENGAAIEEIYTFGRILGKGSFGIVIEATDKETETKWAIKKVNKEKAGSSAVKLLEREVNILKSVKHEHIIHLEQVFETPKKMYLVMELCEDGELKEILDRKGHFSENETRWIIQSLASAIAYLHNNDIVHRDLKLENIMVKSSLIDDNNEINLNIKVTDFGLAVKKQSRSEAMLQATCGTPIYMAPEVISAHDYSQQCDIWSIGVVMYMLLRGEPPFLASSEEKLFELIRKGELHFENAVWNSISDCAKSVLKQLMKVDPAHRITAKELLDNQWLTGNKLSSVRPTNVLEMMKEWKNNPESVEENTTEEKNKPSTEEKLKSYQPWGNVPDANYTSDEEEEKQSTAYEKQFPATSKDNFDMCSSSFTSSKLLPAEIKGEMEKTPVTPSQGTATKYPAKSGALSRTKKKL
UniProt P19256, whole entry: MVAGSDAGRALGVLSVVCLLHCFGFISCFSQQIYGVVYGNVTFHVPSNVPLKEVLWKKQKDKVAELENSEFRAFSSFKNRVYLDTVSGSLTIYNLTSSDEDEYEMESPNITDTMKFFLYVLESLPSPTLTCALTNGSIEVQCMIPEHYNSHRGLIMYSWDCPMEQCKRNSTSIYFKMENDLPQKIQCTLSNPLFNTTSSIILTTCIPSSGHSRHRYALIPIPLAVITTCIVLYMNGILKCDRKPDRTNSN

Target	NP40-soluble protein abundance (concentration: 0.1mM)	NP40-soluble protein abundance (concentration: 0.5mM)	NP40-soluble protein abundance (concentration: 1mM)	NP40-soluble protein abundance (concentration: 2mM)	NP40-soluble protein abundance (concentration: 4mM)	NP40-soluble protein abundance (concentration: 6mM)	NP40-soluble protein abundance (concentration: 8mM)	NP40-soluble protein abundance (concentration: 10mM)
B4E1Q4 and related entries (UniProt O14730)	0.965 ± 0.1	1.03 ± 0.063	0.949 ± 0.081	0.921 ± 0.073	0.806 ± 0.037	0.77 ± 0.041	0.747 ± 0.08	0.704 ± 0.041
B1AH77 and related entries (UniProt P15153)	0.997 ± 0.028	0.983 ± 0.046	0.924 ± 0.015	0.866 ± 0.02	0.847 ± 0.059	0.879 ± 0.051	0.837 ± 0.052	0.822 ± 0.061
C9JQS9 and related entries (UniProt P05166)	1.07 ± 0.045	1.08 ± 0.044	1.02 ± 0.032	1.07 ± 0.073	1.08 ± 0.06	1.04 ± 0.088	1.04 ± 0.037	1.03 ± 0.066
B7Z4W5 and related entries (UniProt Q5T278+Q16773+B7Z4W5)	1.01 ± 0.093	1.02 ± 0.16	0.875 ± 0.038	0.872 ± 0.099	0.912 ± 0.017	0.833 ± 0.063	0.777 ± 0.045	0.799 ± 0.052
B4DJ62 and related entries (UniProt Q99719)	1.08 ± 0.025	1.13 ± 0.049	1.09 ± 0.061	1.13 ± 0.017	1.089 ± 0.0024	1.04 ± 0.053	1.09 ± 0.026	1.04 ± 0.061
B4E0T2 and related entries (UniProt P50542)	0.987 ± 0.045	0.955 ± 0.065	1.01 ± 0.077	0.987 ± 0.083	0.949 ± 0.056	0.978 ± 0.054	0.976 ± 0.034	0.913 ± 0.012
C9JEH3 and related entries (UniProt Q13685)	0.925 ± 0.037	0.974 ± 0.041	0.934 ± 0.027	0.956 ± 0.038	0.917 ± 0.035	0.932 ± 0.06	0.912 ± 0.049	0.965 ± 0.045
C9JWG0 and related entries (UniProt Q16851)	1.04 ± 0.03	1.04 ± 0.052	1 ± 0.046	1.01 ± 0.071	1.01 ± 0.042	1.01 ± 0.067	0.998 ± 0.057	0.983 ± 0.065
A8MTY9 and related entries (UniProt O14972)	1.06 ± 0.1	1 ± 0.12	0.994 ± 0.079	0.988 ± 0.19	1.01 ± 0.2	1.02 ± 0.095	0.987 ± 0.16	1 ± 0.11
D6RGX2 and related entries (UniProt Q9NUQ7)	0.942 ± 0.024	0.9343 ± 4.9e-05	0.881 ± 0.025	0.881 ± 0.03	0.843 ± 0.065	0.825 ± 0.016	0.872 ± 0.094	0.807 ± 0.12
B4E2Q0 and related entries (UniProt P98194)	1.02 ± 0.029	1.01 ± 0.061	0.953 ± 0.07	0.957 ± 0.015	0.985 ± 0.04	0.932 ± 0.046	0.9354 ± 0.0018	0.935 ± 0.085
B8ZZ96 and related entries (UniProt P15882)	0.975 ± 0.086	1.03 ± 0.089	0.934 ± 0.037	0.969 ± 0.14	0.892 ± 0.022	0.948 ± 0.04	0.884 ± 0.025	0.854 ± 0.097
B4DKB2 and related entries (UniProt P42892)	1.03 ± 0.081	1.15 ± 0.062	1.28 ± 0.036	1.35 ± 0.11	1.36 ± 0.026	1.41 ± 0.076	1.45 ± 0.099	1.42 ± 0.065
C9JWC4 and related entries (UniProt Q8NCD3)	1.07 ± 0.053	1.12 ± 0.041	1.15 ± 0.069	1.18 ± 0.025	1.19 ± 0.15	1.18 ± 0.067	1.2 ± 0.055	1.13 ± 0.081
B8ZZ10 and related entries (UniProt Q9NQ29)	1.26 ± 0.045	1.75 ± 0.11	1.91 ± 0.18	1.95 ± 0.12	1.98 ± 0.12	2.09 ± 0.14	2.21 ± 0.28	2.22 ± 0.28
B7ZBM3 and related entries (UniProt Q8IVH2)	0.848 ± 0.1	0.821 ± 0.035	0.984 ± 0.18	1.01 ± 0.21	0.941 ± 0.21	1.03 ± 0.17	0.926 ± 0.1	1.09 ± 0.12
C9JIF9 and related entries (UniProt P13798)	0.987 ± 0.02	1.03 ± 0.05	0.941 ± 0.03	0.938 ± 0.066	0.911 ± 0.045	0.957 ± 0.057	0.908 ± 0.025	0.884 ± 0.027
E5RHG8 and related entries (UniProt Q15369)	0.893 ± 0.015	0.912 ± 0.017	0.927 ± 0.017	0.91 ± 0.017	0.918 ± 0.031	0.934 ± 0.019	0.903 ± 0.02	0.906 ± 0.035
B4DY09 and related entries (UniProt Q12905)	0.96 ± 0.045	1.07 ± 0.066	1.08 ± 0.067	1.16 ± 0.1	1.18 ± 0.1	1.29 ± 0.12	1.25 ± 0.13	1.29 ± 0.13
B7ZAA0 and related entries (UniProt P54277)	1.04 ± 0.074	1.11 ± 0.065	1.09 ± 0.13	1.17 ± 0.22	1.18 ± 0.16	1.15 ± 0.15	1.15 ± 0.11	1.17 ± 0.19
A8CTZ0 and related entries (UniProt Q15811)	1.03 ± 0.094	0.978 ± 0.076	0.984 ± 0.1	0.942 ± 0.092	0.898 ± 0.054	0.952 ± 0.1	0.908 ± 0.099	0.901 ± 0.066
C9J6N5 and related entries (UniProt Q9H098)	1.02 ± 0.079	1.05 ± 0.046	1.11 ± 0.15	0.994 ± 0.073	1.02 ± 0.058	0.982 ± 0.087	1.11 ± 0.14	1.11 ± 0.14
B4DDH2 and related entries (UniProt Q9BYT3)	1.03 ± 0.029	1.04 ± 0.098	0.953 ± 0.051	0.953 ± 0.052	0.996 ± 0.048	0.959 ± 0.023	0.974 ± 0.087	0.974 ± 0.039
C9J5J4 and related entries (UniProt Q5TKA1)	1.04 ± 0.095	1.02 ± 0.053	1.07 ± 0.069	1.08 ± 0.016	1.07 ± 0.071	1.1 ± 0.052	1.14 ± 0.13	1.09 ± 0.024
B4DGU4 and related entries (UniProt P35222)	1.04 ± 0.087	0.98 ± 0.087	1.06 ± 0.032	1.01 ± 0.066	1.03 ± 0.095	1 ± 0.098	1.03 ± 0.058	0.949 ± 0.1
B1AMW1 and related entries (UniProt P19256)	0.879 ± 0.05	0.937 ± 0.095	0.973 ± 0.11	0.915 ± 0.064	0.979 ± 0.038	1.03 ± 0.088	0.952 ± 0.036	0.958 ± 0.047

Quoted at random: two entries already listed, in no set order.
Target	NP40-soluble protein abundance (concentration: 0.1mM)	NP40-soluble protein abundance (concentration: 0.5mM)	NP40-soluble protein abundance (concentration: 1mM)	NP40-soluble protein abundance (concentration: 2mM)	NP40-soluble protein abundance (concentration: 4mM)	NP40-soluble protein abundance (concentration: 6mM)	NP40-soluble protein abundance (concentration: 8mM)	NP40-soluble protein abundance (concentration: 10mM)
D6RGX2 and related entries (UniProt Q9NUQ7)	0.942 ± 0.024	0.9343 ± 4.9e-05	0.881 ± 0.025	0.881 ± 0.03	0.843 ± 0.065	0.825 ± 0.016	0.872 ± 0.094	0.807 ± 0.12
B4DGU4 and related entries (UniProt P35222)	1.04 ± 0.087	0.98 ± 0.087	1.06 ± 0.032	1.01 ± 0.066	1.03 ± 0.095	1 ± 0.098	1.03 ± 0.058	0.949 ± 0.1

Reference: the supplement of paper PMC6411743
